No constants are given. Whether binding was seen depends on the method and setting. In cells and extracts the contact can be indirect. These calls come from enrichment with a bait or labelling near it, and not all partners need be listed. Tags and fused reporters may be left off the sequences shown.
T1: PXL1-FLAG (PXY-LIKE1) from PXL1:PXL1-FLAG transgenic Arabidopsis (Arabidopsis thaliana) (UniProt Q9FRS6)
T1 sequence: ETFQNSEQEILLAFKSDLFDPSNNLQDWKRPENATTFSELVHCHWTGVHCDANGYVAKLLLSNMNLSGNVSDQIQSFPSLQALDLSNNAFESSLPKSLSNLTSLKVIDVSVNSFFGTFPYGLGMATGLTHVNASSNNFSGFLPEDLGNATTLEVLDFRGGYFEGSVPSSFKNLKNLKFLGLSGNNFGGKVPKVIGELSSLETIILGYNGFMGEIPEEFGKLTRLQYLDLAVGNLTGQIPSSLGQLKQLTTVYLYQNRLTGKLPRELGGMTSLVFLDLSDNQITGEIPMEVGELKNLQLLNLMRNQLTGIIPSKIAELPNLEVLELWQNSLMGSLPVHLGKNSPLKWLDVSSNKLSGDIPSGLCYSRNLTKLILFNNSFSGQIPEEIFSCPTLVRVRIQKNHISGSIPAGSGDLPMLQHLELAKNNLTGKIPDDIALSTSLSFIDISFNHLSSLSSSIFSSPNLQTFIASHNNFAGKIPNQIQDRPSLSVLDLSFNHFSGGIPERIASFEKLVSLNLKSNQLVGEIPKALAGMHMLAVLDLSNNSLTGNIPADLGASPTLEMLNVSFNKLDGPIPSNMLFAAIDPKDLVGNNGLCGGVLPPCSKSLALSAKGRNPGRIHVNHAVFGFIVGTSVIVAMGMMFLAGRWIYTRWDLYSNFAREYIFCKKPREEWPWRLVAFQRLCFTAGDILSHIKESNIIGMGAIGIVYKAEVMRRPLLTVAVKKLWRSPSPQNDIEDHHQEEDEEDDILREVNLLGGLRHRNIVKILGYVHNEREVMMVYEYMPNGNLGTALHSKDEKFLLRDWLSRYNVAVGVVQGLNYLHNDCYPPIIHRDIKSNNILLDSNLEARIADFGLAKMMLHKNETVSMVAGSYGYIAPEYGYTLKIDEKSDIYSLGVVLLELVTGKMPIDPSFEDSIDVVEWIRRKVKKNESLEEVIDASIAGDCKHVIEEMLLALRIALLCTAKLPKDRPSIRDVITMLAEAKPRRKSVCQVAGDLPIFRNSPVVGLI

B1: BSL2 (BSU-LIKE2), endogenous (enzyme, UniProt Q9SJF0 1-1018)
chain: MDEDSSMVADNDQDREFQSLDGGQSPSPMERETPQQMNDQSPPPEGGSVPTPPPSDPNPATSQQQAAAVVGQEQQPALVVGPRCAPTYSVVDAMMDKKEDGPGPRCGHTLTAVPAVGDEGTPGYIGPRLVLFGGATALEGNSGGTGTPTSAGSAGIRLAGATADVHCYDVLSNKWTRLTPFGEPPTPRAAHVATAVGTMVVIQGGIGPAGLSAEDLHVLDLTQQRPRWHRVVVQGPGPGPRYGHVMALVGQRYLMAIGGNDGKRPLADVWALDTAAKPYEWRKLEPEGEGPPPCMYATASARSDGLLLLCGGRDANSVPLASAYGLAKHRDGRWEWAIAPGVSPSSRYQHAAVFVNARLHVSGGALGGGRMVEDSSSVAVLDTAAGVWCDTKSVVTSPRTGRYSADAAGGDASVELTRRCRHAAAAVGDLIFIYGGLRGGVLLDDLLVAEDLAAAETTYAASHAAAAAATNSPPGRLPGRYGFSDERNRELSESAADGAVVLGSPVAPPVNGDMHTDISPENALLPGTRRTNKGVEYLVEASAAEAEAISATLAAAKARQVNGEVELPDRDCGAEATPSGKPTFSLIKPDSMGSMSVTPAGIRLHHRAVVVAAETGGALGGMVRQLSIDQFENEGRRVSYGTPESATAARKLLDRQMSINSVPKKVIAHLLKPRGWKPPVRRQFFLDCNEIADLCDSAERIFASEPTVLQLKAPIKIFGDLHGQFGDLMRLFDEYGSPSTAGDISYIDYLFLGDYVDRGQHSLETISLLLALKVEYQHNVHLIRGNHEAADINALFGFRIECIERMGERDGIWVWHRINRLFNWLPLAASIEKKIICMHGGIGRSINHVEQIENIQRPITMEAGSIVLMDLLWSDPTENDSVEGLRPNARGPGLVTFGPDRVMEFCNNNDLQLIVRAHECVMDGFERFAQGHLITLFSATNYCGTANNAGAILVLGRDLVVVPKLIHPLPPALSSPETSPERHIEDTWMQELNANRPATPTRGRPQNSNDRGGSLAWM
B2: BSL3 (BSU-LIKE3), endogenous (enzyme, UniProt Q9SHS7 1-1006)
chain: MDLDSSMVPENDQDPIATSENQSPMEEKEEASEQQTGSESESASLTPSLPPPSQQQQQQQQQPQVTAVVGPRCAPTYSVVNAIIEKKEDGPGPRCGHTLTAVPAVGEEGTSSYIGPRLILFGGATALEGNSGGTGTPTSAGSAGIRLAGATADVHCYDVLSNKWSRLTPYGEPPSPRAAHVATAVGTMVVIQGGIGPAGLSAEDLHVLDLTQQRPRWHRVVVQGPGPGPRYGHVMALVGQRYLMAIGGNDGKRPLADVWALDTAAKPYEWRKLEPEGEGPPPCMYATASARSDGLLLLCGGRDANSVPLASAYGLAKHRDGRWEWAIAPGVSPSARYQHAAVFVNARLHVSGGALGGGRMVEDSSSVAVLDTAAGVWCDTKSVVTSPRTGRYSADAAGGDASVELTRRCRHAAAAVGDLIFIYGGLRGGVLLDDLLVAEDLAAAETTSAASHAAAAAAATNTPPGRSPGRYGFSDERTGELPESAPDAVVLGSPVAPPVNGDMYTDISTENAMVPGIRRTSKGVEYLVEASAAEAEAISATLAAAKARQVNGEVELPDRDRGAEATPSGKPSLSLIKPDSAVPNSVIPAGVRLHHRAVVVAAETGGALGGMVRQLSIDQFENEGRRVSYGTPESATAARKLLDRQMSINSVPKKVVAHLLKPRGWKPPVRRQFFLDCNEIADLCDSAERIFSSEPTVLQLKAPIKIFGDLHGQFGDLMRLFDEYGSPSTAGDISYIDYLFLGDYVDRGQHSLETITLLLALKVEYQHNVHLIRGNHEAADINALFGFRIECIERMGERDGIWVWHRINRLFNWLPLAALIEKKIICMHGGIGRSINHVEQIENIQRPITMEAGSIVLMDLLWSDPTENDSVEGLRPNARGPGLVTFGPDRVMEFCNNNDLQLIVRAHECVMDGFERFAQGHLITLFSATNYCGTANNAGAILVLGRDLVVVPKLIHPLPPAITSPETSPERHIEDTWMQELNVNRPPTPTRGRPQNPNDRGSLAWI
B3: BSL1 (BSU-LIKE1), endogenous (enzyme, UniProt Q8L7U5 1-881)
chain: MGSKPWLHPAPQYKTLETFWDDEDDAPGPRCAHTLTAVAATKTHGPRLILFGGATAIEGGSSSVPGIRLAGVTNTVHSYDILTRKWTRLKPAGEPPSPRAAHAAAAVGTMVVFQGGIGPAGHSTDDLYVLDMTNDKFKWHRVVVQGDGPGPRYGHVMDLVSQRYLVTVTGNDGKRALSDAWALDTAQKPYVWQRLNPDGDRPSARMYASGSARSDGMFLLCGGRDTLGAPLGDAYGLLMHRNGQWEWTLAPGVAPSPRYQHAAVFVGARLHVSGGVLRGGRVIDAEASVAVLDTAAGVWLDRNGQVTSARGSKGQIDQDPSFELMRRCRHGAASVGIRIYVHGGLRGDVLLDDFLVAENSTFQSDISSPLLASDRTQQSSTPRFSYAARPPSGSEPSFSMSEGLSLDENSLEKLTEASAAEAEVASSVWRAAQLGAGTLDEEPSTSDASSPIVESTTDGTANEGDVRLHPRAVVVAKETVGSLGGMVRQLSLDQFQNESRRMVPMNNSDVPQPTKKFTRQKSPQGLHKKVIAALLRPRNWKPPGNRKFFLDSYEVGELCYAAEQIFMHEQTVLQLKAPIKVFGDLHGQFGDLMRLFDEYGFPSTAGDITYIDYLFLGDYVDRGQHSLETITLLLALKIEYPENVHLIRGNHEAADINALFGFRLECIERMGENDGIWAWTRFNQLFNYLPLAALIENKIICMHGGIGRSISTVEQIEKIERPITMDAGSLVLMDLLWSDPTENDSIEGLRPNARGPGLVTFGPDRVTEFCKRNKLQLIIRAHECVMDGFERFAQGQLITLFSATNYCGTANNAGAILVVGRGLVIVPKLIHPLPPPILSPENSPEHSGDDAWMQELNIQRPPTPTRGRPQPDFDRSSLAYI

Each binder was assayed against T1, PXL1-FLAG (PXY-LIKE1) from PXL1:PXL1-FLAG transgenic Arabidopsis (Arabidopsis thaliana) (assay: affinity purification with mass spectrometry; Co-IP/MS from inflorescence of PXL1:PXL1-FLAG transgenic plants).

Row | binding | Binder
1 | binds | B1
2 | binds | B2
3 | binds | B3

Source: PMC12678687
